Results published in patent US6884600.
No constants are given. Whether binding was seen depends on the method and setting. Binding seen in cells or lysates may run through a third protein. Some binding calls cover weakened binding; strength is not graded here. Tags and fused reporters may be left off the sequences shown.

Biological target: T1, M110-(R714-I1004), C-terminal 291 residues of the chicken gizzard M110 subunit (chicken) (UniProt Q90623)
T1 sequence: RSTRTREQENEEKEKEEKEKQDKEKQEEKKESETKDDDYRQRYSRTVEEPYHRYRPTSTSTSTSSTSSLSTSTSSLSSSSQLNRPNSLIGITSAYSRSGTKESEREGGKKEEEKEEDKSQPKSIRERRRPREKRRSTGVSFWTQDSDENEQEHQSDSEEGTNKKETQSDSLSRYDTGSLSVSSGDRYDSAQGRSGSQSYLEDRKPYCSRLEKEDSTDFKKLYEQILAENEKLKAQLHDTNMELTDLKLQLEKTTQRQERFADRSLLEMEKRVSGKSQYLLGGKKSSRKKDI
Assay: pull-down on glutathione-Sepharose

binding: binds
B1: GST-M21 (protein, not shown: a dimerising Fc or GST; small tags and cut ends)
chain: MSSLFTRSKEYTRSRKSQSDSPPSSPSPIAKTLRHERLSRLEAATTPATSDSYSDRASSRSSAYSRRENRLAALSSRAEEESNRDYKKLYESALSENQKLKSKLQEAQLELADIKSKLEKAAQQKHEKTSDRSSMLEMEKREKRALERKLSEMEEEMKILTELKSDNQRLKDENGALIRVISKLSK
